Results reported in article doi:10.1101/2025.01.06.631460 (bioRxiv, 2025).

Legend:
Experiment in all cases: FRET or BRET
[1] = molecular target: T1, CNGC14-mCitrine (Arabidopsis thaliana) (UniProt Q9SJA4)
T1 sequence: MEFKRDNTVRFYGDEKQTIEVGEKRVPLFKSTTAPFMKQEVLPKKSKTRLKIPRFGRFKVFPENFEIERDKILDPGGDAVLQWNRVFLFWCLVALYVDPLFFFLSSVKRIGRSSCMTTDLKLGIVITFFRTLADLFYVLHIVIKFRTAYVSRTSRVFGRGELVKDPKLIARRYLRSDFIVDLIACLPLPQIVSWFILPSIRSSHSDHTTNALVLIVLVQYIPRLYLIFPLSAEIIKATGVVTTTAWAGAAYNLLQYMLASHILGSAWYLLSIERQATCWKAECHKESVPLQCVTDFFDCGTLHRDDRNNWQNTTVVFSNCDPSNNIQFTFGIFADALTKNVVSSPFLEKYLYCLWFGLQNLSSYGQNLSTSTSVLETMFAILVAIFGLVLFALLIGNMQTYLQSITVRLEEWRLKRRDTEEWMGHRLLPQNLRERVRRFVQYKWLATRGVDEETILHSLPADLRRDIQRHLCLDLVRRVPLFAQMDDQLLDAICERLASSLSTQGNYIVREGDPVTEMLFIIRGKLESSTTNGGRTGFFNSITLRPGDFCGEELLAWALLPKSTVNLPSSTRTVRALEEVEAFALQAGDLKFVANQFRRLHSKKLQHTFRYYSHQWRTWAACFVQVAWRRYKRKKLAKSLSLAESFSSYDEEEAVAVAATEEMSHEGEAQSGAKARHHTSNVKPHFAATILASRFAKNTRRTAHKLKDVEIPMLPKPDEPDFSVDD

[2] = molecular target: CNGC14ΔIQ (Arabidopsis thaliana) (UniProt Q9SJA4)
[3] = molecular target: T2, CNGC2-mCitrine (Arabidopsis thaliana) (UniProt O65718)
T2 sequence: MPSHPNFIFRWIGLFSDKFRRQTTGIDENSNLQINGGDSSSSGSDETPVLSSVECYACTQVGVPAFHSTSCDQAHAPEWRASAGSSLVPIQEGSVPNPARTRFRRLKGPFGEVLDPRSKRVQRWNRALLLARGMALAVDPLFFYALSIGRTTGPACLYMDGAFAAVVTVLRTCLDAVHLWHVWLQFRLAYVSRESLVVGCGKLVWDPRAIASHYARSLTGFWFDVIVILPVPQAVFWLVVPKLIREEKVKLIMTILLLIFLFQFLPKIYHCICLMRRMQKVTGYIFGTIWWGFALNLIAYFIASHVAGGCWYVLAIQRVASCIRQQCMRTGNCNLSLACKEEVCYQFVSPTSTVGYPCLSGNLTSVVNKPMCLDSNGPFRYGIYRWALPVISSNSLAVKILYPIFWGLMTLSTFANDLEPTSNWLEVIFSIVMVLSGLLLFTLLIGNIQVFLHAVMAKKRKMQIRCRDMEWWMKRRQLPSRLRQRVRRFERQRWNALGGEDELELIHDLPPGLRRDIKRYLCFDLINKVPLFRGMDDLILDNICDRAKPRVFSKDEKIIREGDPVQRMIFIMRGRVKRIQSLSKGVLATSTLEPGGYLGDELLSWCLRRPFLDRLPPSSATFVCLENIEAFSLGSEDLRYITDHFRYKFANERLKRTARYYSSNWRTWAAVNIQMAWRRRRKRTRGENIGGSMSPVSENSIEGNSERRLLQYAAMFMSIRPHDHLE

[4] = molecular target: T1, CNGC14-mCitrine (Arabidopsis thaliana); remark: listed apart in the source
[5] = molecular target: T2, CNGC2-mCitrine (Arabidopsis thaliana); remark: listed apart in the source

ARO2-mCherry (from UniProt Q9FKW5) was tested, and the binding [1] was “binds”, the binding [2] was “no binding” and the binding [3] was “binds”. The binding [4] was “binds” and the binding [5] was “binds”.

Where two headings read alike, the source gives them in different places. No constants are given. Whether binding was seen depends on the method and setting. In cells and extracts the contact can be indirect. For some assays here: Binding can be weak; no strength is given.
